Laboratory results as given in article PMC3857619.

The chains behind the UniProt entries cited, without tags or fusion partners.
UniProt P26599: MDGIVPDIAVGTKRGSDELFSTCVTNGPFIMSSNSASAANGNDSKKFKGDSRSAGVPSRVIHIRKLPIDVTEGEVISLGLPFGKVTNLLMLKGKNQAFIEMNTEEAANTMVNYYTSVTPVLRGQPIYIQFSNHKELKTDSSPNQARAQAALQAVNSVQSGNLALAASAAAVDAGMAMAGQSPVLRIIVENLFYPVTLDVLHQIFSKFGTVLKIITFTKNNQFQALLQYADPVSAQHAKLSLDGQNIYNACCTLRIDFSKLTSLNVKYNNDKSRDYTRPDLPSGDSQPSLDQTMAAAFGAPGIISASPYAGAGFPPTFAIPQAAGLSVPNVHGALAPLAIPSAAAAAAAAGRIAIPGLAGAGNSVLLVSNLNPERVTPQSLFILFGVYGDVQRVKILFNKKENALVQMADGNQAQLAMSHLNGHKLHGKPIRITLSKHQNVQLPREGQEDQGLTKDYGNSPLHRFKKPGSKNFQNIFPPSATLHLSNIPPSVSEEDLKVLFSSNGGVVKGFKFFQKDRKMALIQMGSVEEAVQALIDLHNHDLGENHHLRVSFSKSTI

Target: polypyrimidine tract-binding protein (human (endogenous in MCF7 and HeLa)) (UniProt P26599)
Test: affinity purification with mass spectrometry; anti-PTB immunoprecipitation from nuclear and cytoplasmic lysates of MCF7 cells, mock or TRAIL for 3 h; SDS-PAGE, LC-MS/MS; three independent occasions

binding: binds
B1: DDX1 (protein, UniProt Q92499 1-740)
chain: MAAFSEMGVMPEIAQAVEEMDWLLPTDIQAESIPLILGGGDVLMAAETGSGKTGAFSIPVIQIVYETLKDQQEGKKGKTTIKTGASVLNKWQMNPYDRGSAFAIGSDGLCCQSREVKEWHGCRATKGLMKGKHYYEVSCHDQGLCRVGWSTMQASLDLGTDKFGFGFGGTGKKSHNKQFDNYGEEFTMHDTIGCYLDIDKGHVKFSKNGKDLGLAFEIPPHMKNQALFPACVLKNAELKFNFGEEEFKFPPKDGFVALSKAPDGYIVKSQHSGNAQVTQTKFLPNAPKALIVEPSRELAEQTLNNIKQFKKYIDNPKLRELLIIGGVAARDQLSVLENGVDIVVGTPGRLDDLVSTGKLNLSQVRFLVLDEADGLLSQGYSDFINRMHNQIPQVTSDGKRLQVIVCSATLHSFDVKKLSEKIMHFPTWVDLKGEDSVPDTVHHVVVPVNPKTDRLWERLGKSHIRTDDVHAKDNTRPGANSPEMWSEAIKILKGEYAVRAIKEHKMDQAIIFCRTKIDCDNLEQYFIQQGGGPDKKGHQFSCVCLHGDRKPHERKQNLERFKKGDVRFLICTDVAARGIDIHGVPYVINVTLPDEKQNYVHRIGRVGRAERMGLAISLVATEKEKVWYHVCSSRGKGCYNTRLKEDGGCTIWYNEMQLLSEIEEHLNCTISQVEPDIKVPVDEFDGKVTYGQKRAAGGGSYKGHVDILAPTVQELAALEKEAQTSFLHLGYLPNQLFRTF

No constants are given. Whether binding was seen depends on the method and setting. In cells and extracts the contact can be indirect. A yes stands for co-enrichment or nearness to the bait. Other partners may have been found.
